SMILES strings stand for the structures. The list does not hold the whole screen: it gathers tests that were run many times, whatever their T/C, doses with no T/C, and many T/C values between a quarter and a half above the control. Further doses and runs are listed elsewhere. T/C is the treated group as % of the vehicle group. Some doses have a count of surviving animals in place of a T/C: the source holds a T/C of zero for them, seemingly a mark for toxic or unscored doses. Some doses without a T/C left all or most animals alive at the check, yet need not have been tolerated: survival well below the control is almost never listed, so the zero probably covers shortened survival too. Survivors were counted at the toxicity check, usually on the fifth day, unless a day is given; later deaths do not show. Schedules are NCI's codes, read here as Q, the interval in days (D) or hours (H), X, the number of doses. Some schedules carry Z or #; the key to these is not given. For survival time, this PubChem deposit counts one and a half times the control or more as active, and values a quarter to a half above the control carry no call in these data; other NCI protocols may use other cut-offs.

The subject of the assay is L1210 leukemia ip in BDF1 mice, survival T/C. In words: NCI In Vivo Anticancer Drug Screen. Data for tumor model L1210 Leukemia (intraperitoneal) in B6D2F1 (BDF1) mice. The settings on record: T/C endpoint: mean survival time, higher T/C = longer survival.
[1] abbreviates: dose: 400.0 mg/kg/injection, schedule: Q01DX001 (ip), vehicle: saline.
The mark [2] stands for this setting: dose: 200.0 mg/kg/injection, schedule: Q01DX001 (ip), vehicle: saline.
Where [3] appears, read: dose: 400.0 mg/kg/injection, schedule: Q01DX009 (ip), vehicle: saline.
Setting [4] is: dose: 400.0 mg/kg/injection, schedule: Q04DX003 (ip), vehicle: saline with Tween-80.
Where [5] appears, read: dose: 400.0 mg/kg/injection, schedule: Q04DX003 (ip), vehicle: Klucel (hydroxypropylcellulose) (HPC).
[6] abbreviates: dose: 200.0 mg/kg/injection, schedule: Q04DX003 (ip), vehicle: saline.
The mark [7] stands for this setting: dose: 400.0 mg/kg/injection, schedule: Q04DX003 (ip), vehicle: saline.
Where [8] appears, read: dose: 100.0 mg/kg/injection, schedule: Q04DX003 (ip), vehicle: saline.

As for `CCCCCCCCCCCCCCNCCCCCCCCCCCCCC`, where the note is “dose: 200.0 mg/kg/injection, schedule: Q01DX009 (ip), vehicle: Klucel (hydroxypropylcellulose) (HPC)”, the survivor count was 0 of 6.

As for `C=C(COC(C)(C)C)CN(C)C`, under setting [1], the survivor count was 0 of 6.

With `COc1ccc2c(OC)c3ccoc3nc2c1OC`, the survivor count was 6 of 6 (dose: 100.0 mg/kg/injection, schedule: Q01DX Z (ip), vehicle: carboxymethylcellulose (CMC)) and 6 of 6 (dose: 200.0 mg/kg/injection, schedule: Q01DX Z (ip), vehicle: carboxymethylcellulose (CMC)).

As for `OC(CCN1CCCCC1)(c1cccs1)C(O)(CCN1CCCCC1)c1cccs1` (stereo not given), the survivor count under setting [1] is 0 of 6.

For the compound `CN(CCc1cn(C2OC(CO)C(O)C(O)C2O)cn1)C(=O)/C=C/c1ccccc1` (stereo not given), the T/C (dose: 200.0 mg/kg/injection, schedule: Q01DX005 (ip), vehicle: saline) was 138 % of control.

Consider `O=CNc1cc2c3c(c1)CCCN3CCC2`, for which the survivor count is 3 of 6 (dose: 100.0 mg/kg/injection, schedule: Q01DX009 (ip), vehicle: saline); 1 of 6 under setting [2]; 3 of 6 under setting [1].

As to `N/N=C/NN=C(N)N`, the T/C (dose: 240.0 mg/kg/injection, schedule: Q01DX Z (oral), vehicle: saline) was 125 % of control. Further, the survivor count by setting is: (dose: 480.0 mg/kg/injection, schedule: Q01DX Z (oral), vehicle: saline) 3 of 6; (dose: 960.0 mg/kg/injection, schedule: Q01DX Z (oral), vehicle: saline) 0 of 6.

Turning to `C=C(C)C1CC=C(C)CC1` (stereo not given), the survivor count by setting is: (dose: 200.0 mg/kg/injection, schedule: Q01DX009 (ip), vehicle: saline) 0 of 6; under setting [3], 2 of 6.

`COc1ccc(C2(OC)Oc3cc(OC)ccc3C(=O)C2(O)OC)cc1` (stereo not given): the survivor count under setting [2] is recorded as 0 of 4 and the survivor count under setting [1] is listed as 0 of 4.

As for `CCCCCCCc1ccc(C(C)=O)cc1`, the T/C (dose: 200.0 mg/kg/injection, schedule: Q04DX003 (ip), vehicle: saline with Tween-80) is 127 % of control.

In the case of `CCOC(=O)C1(NC(=O)N(CCCl)N=O)CCCC1`, the T/C (dose: 62.0 mg/kg/injection, schedule: Q01DX001 (ip), vehicle: other) was 127 % of control. Moreover, the survivor count runs as follows: (dose: 500.0 mg/kg/injection, schedule: Q01DX001 (ip), vehicle: other) 6 of 6; (dose: 750.0 mg/kg/injection, schedule: Q01DX001 (ip), vehicle: other) 6 of 6; (dose: 1000.0 mg/kg/injection, schedule: Q01DX001 (ip), vehicle: other) 3 of 6; (dose: 2000.0 mg/kg/injection, schedule: Q01DX001 (ip), vehicle: other) 0 of 6.

For `[Se]c1ccnc([Se])n1`, the survivor count under setting [4] is listed as 4 of 6.

On to `Cc1ccc(Cl)cc1NC(=O)c1cccc(C(=O)Nc2cc(Cl)ccc2C)c1`, for which the survivor count under setting [5] is on record as 6 of 6.

Regarding `N#Cc1sc2ccccc2c1CBr`, the survivor count under setting [5] is 6 of 6.

On to `CCCCCCCCCCCCCCCCS(=O)(=O)c1ccc(S(=O)(=O)F)cc1NC(=O)C(F)(F)F`, for which, under setting [4], the survivor count is given as 6 of 6.

As to `O=C(OCc1ccccc1CN1CCCC1)c1ccc([N+](=O)[O-])cc1Cl`, the survivor count (dose: 400.0 mg/kg/injection, schedule: Q04DX002 (ip), vehicle: saline) is given as 1 of 3.

As for `O=C1C(=O)C2(O)C(=O)C12O` (stereo not given), the survivor count is on record as 4 of 6 under setting [6] and 2 of 6 under setting [7].

Turning to `CCCCCCCCCCCCOc1ccc(/C(=N\N=C(N)N)c2ccccc2)c(O)c1`, the survivor count (dose: 60.0 mg/kg/injection, schedule: Q01DX Z (ip), vehicle: saline) was 6 of 6.

`COc1ccc(/C=N/NC(N)=S)cc1`: the survivor count (dose: 800.0 mg/kg/injection, schedule: Q01DX009 (ip), vehicle: acetone) was 0 of 6.

With `CC1=CC(=O)CC(=O)O1`, the survivor count (dose: 400.0 mg/kg/injection, schedule: Q01DX009 (ip), vehicle: Klucel (hydroxypropylcellulose) (HPC)) is 6 of 6.

`C=CCOB(OCC=C)OCC=C`: under setting [8], the survivor count was 0 of 6.

On to `CCCCOc1ccc(OCCCCCCCCCC[N+](C)(C)C)cc1`, for which the T/C (dose: 6.25 mg/kg/injection, schedule: Q04DX002 (ip), vehicle: saline) is 144 % of control. For the same compound, the survivor count is listed as 0 of 3 (dose: 25.0 mg/kg/injection, schedule: Q04DX002 (ip), vehicle: saline); 0 of 3 (dose: 50.0 mg/kg/injection, schedule: Q04DX002 (ip), vehicle: saline); 1 of 3 (dose: 100.0 mg/kg/injection, schedule: Q04DX002 (ip), vehicle: saline); 0 of 3 (dose: 200.0 mg/kg/injection, schedule: Q04DX002 (ip), vehicle: saline).

Regarding `CO/[N+]([O-])=C\C(=O)N/C=C/C(=O)O`, the survivor count is, setting by setting: (dose: 30.0 mg/kg/injection, schedule: Q01DX Z (ip), vehicle: carboxymethylcellulose (CMC)) 2 of 6; (dose: 45.0 mg/kg/injection, schedule: Q01DX Z (ip), vehicle: carboxymethylcellulose (CMC)) 0 of 6.

Take `OCn1cnc2c(SC3CCCC3)ncnc21`: the T/C is, setting by setting: (dose: 40.0 mg/kg/injection, schedule: Q01DX009 (ip), vehicle: Klucel (hydroxypropylcellulose) (HPC)) 134 % of control; (dose: 53.0 mg/kg/injection, schedule: Q01DX009 (ip), vehicle: saline) 141 % of control; (dose: 60.0 mg/kg/injection, schedule: Q01DX009 (ip), vehicle: Klucel (hydroxypropylcellulose) (HPC)) 142 % of control; (dose: 80.0 mg/kg/injection, schedule: Q01DX009 (ip), vehicle: saline) 147 % of control; (dose: 80.0 mg/kg/injection, schedule: Q01DX015 (ip), vehicle: saline) 140 % of control; (dose: 120.0 mg/kg/injection, schedule: Q01DX009 (ip), vehicle: other) 133 % of control. Also, the T/C is 130 % of control (dose: 120.0 mg/kg/injection, schedule: Q01DX009 (ip), vehicle: saline); 148 % of control (dose: 120.0 mg/kg/injection, schedule: Q01DX015 (ip), vehicle: saline); 134 % of control (dose: 133.0 mg/kg/injection, schedule: Q01DX009 (ip), vehicle: Klucel (hydroxypropylcellulose) (HPC)); 133 % of control (dose: 180.0 mg/kg/injection, schedule: Q01DX009 (ip), vehicle: saline); 136 % of control (dose: 270.0 mg/kg/injection, schedule: Q01DX009 (ip), vehicle: other); 143 % of control (dose: 270.0 mg/kg/injection, schedule: Q01DX009 (ip), vehicle: saline). Besides, the T/C under setting [3] is 147 % of control. Besides, the survivor count is on record as 0 of 4 (dose: 300.0 mg/kg/injection, schedule: Q01DX009 (ip), vehicle: Klucel (hydroxypropylcellulose) (HPC)) and 3 of 6 (dose: 405.0 mg/kg/injection, schedule: Q01DX015 (ip), vehicle: saline).

Take `O=C1CC2(CCCCC2)CO1`: the survivor count is, setting by setting: (dose: 25.0 mg/kg/injection, schedule: Q04DX003 (ip), vehicle: saline) 1 of 4; (dose: 50.0 mg/kg/injection, schedule: Q04DX003 (ip), vehicle: saline) 0 of 4; under setting [8], 0 of 4; under setting [6], 0 of 4; under setting [7], 0 of 4.

As for `CC1(C)CS(=O)(=O)CC(C)(C)C(=O)C1=O`, the survivor count runs as follows: (dose: 200.0 mg/kg/injection, schedule: Q01DX001 (ip), vehicle: Klucel (hydroxypropylcellulose) (HPC)) 3 of 6; (dose: 400.0 mg/kg/injection, schedule: Q01DX001 (ip), vehicle: Klucel (hydroxypropylcellulose) (HPC)) 0 of 6.

For the compound `COc1ccc(NC(=O)c2ccc(C(=O)Nc3ccc(OC)cc3OC)cc2)c(OC)c1`, the survivor count (dose: 100.0 mg/kg/injection, schedule: Q04DX002 (ip), vehicle: Klucel (hydroxypropylcellulose) (HPC)) is recorded as 3 of 3.

In the case of `S=C(Nc1ccccc1)NC1CCCCCC1`, the survivor count is 6 of 6 (dose: 100.0 mg/kg/injection, schedule: Q01DX009 (ip), vehicle: saline with Tween-80) and 3 of 6 under setting [7].

Source of the values: PubChem BioAssay AID248 (DTP/NCI, 2004).
